Measurements reported in PubChem BioAssay AID1259254 (NCATS, 2017).
The whole screen tested about 59,000 reagents; shown is an unselected part. About 1,550 of them (2.6%) count as active. 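G2 share is only a proxy for re-replication; each gene was hit by three separate siRNAs, and active genes were retested.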 The raw values are shown without normalisation. A number with no mark means an inactive call. Reagents against one gene are numbered here. Not given: the amount of reagent.

- Aim: 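Genome-wide screen for genes that prevent DNA re-replication in cancer cells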 (primary screen)
- System: human HCT116 colorectal cancer cells
- Reagent: single siRNA against human genes
- Timing: 3 days
- Measured: 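Nuclei stained with Hoechst and imaged; cell-cycle phase assigned by DNA content; G2 share scaled per plate, non-targeting siRNA 0%, GMNN siRNA 100%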
- Reading the numbers: G2 robust z-score and G2 cells, % of GMNN control: higher = more G2 cells, more excess DNA replication; raw share of cells in G2: higher = larger share of cells with G2 DNA content
- Active means: 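Active siRNAs have a G2 robust z of 5 or more median absolute deviations over the median, which in these data means about 38% or higher of GMNN control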

target	reagent no.	G2 robust z-score	G2 cells, % of GMNN control	raw share of cells in G2 (%)
KRT72	1	0.318	5.2	4.88
KRT72	2	1.29	12.1	7.88
KRT72	3	-0.45	-0.199	2.85
PTN	1	-0.255	1.17	5.13
PTN	2	1.12	10.9	8.72
PTN	3	1.35	12.4	8.28
GARIN2	1	1.38	12.7	6.78
GARIN2	2	-0.799	-2.65	2.65
GARIN2	3	1.11	10.8	6.57
IPPK	1	4.12	32	15.5
IPPK	2	0.716	8.01	8.1
IPPK	3	-0.311	0.777	3.93
LRWD1	1	-0.087	2.36	4.43
LRWD1	2	-0.566	-1.01	2.78
LRWD1	3	-0.565	-1.01	2.87
LANCL2	1	-0.968	-3.84	2.83
LANCL2	2	0.652	7.55	8.07
LANCL2	3	1.29	12.1	6.85
C5orf34	1	0.0354	3.22	4.87
C5orf34	2	-0.227	1.37	4
C5orf34	3	0.181	4.24	6.45
LRRC28	1	0.535	6.73	6.79
LRRC28	2	1.39	12.7	7.12
LRRC28	3	-0.462	-0.282	1.74
TIMP3	1	3.49	27.5	15.3
TIMP3	2	0.0211	3.12	5.59
TIMP3	3	-0.617	-1.37	4.32
TMEM200C	1	0.283	4.96	4.62
TMEM200C	2	-0.605	-1.29	3.29
TMEM200C	3	-1.2	-5.46	1.2

Reformatted: 12 of the entries above.
{"target": "IPPK", "reagent no.": 3, "G2 robust z-score": -0.311, "G2 cells, % of GMNN control": 0.777, "raw share of cells in G2 (%)": 3.93}
{"target": "LRWD1", "reagent no.": 1, "G2 robust z-score": -0.087, "G2 cells, % of GMNN control": 2.36, "raw share of cells in G2 (%)": 4.43}
{"target": "LRWD1", "reagent no.": 2, "G2 robust z-score": -0.566, "G2 cells, % of GMNN control": -1.01, "raw share of cells in G2 (%)": 2.78}
{"target": "LRWD1", "reagent no.": 3, "G2 robust z-score": -0.565, "G2 cells, % of GMNN control": -1.01, "raw share of cells in G2 (%)": 2.87}
{"target": "LANCL2", "reagent no.": 1, "G2 robust z-score": -0.968, "G2 cells, % of GMNN control": -3.84, "raw share of cells in G2 (%)": 2.83}
{"target": "LANCL2", "reagent no.": 2, "G2 robust z-score": 0.652, "G2 cells, % of GMNN control": 7.55, "raw share of cells in G2 (%)": 8.07}
{"target": "LANCL2", "reagent no.": 3, "G2 robust z-score": 1.29, "G2 cells, % of GMNN control": 12.1, "raw share of cells in G2 (%)": 6.85}
{"target": "C5orf34", "reagent no.": 1, "G2 robust z-score": 0.0354, "G2 cells, % of GMNN control": 3.22, "raw share of cells in G2 (%)": 4.87}
{"target": "C5orf34", "reagent no.": 2, "G2 robust z-score": -0.227, "G2 cells, % of GMNN control": 1.37, "raw share of cells in G2 (%)": 4}
{"target": "C5orf34", "reagent no.": 3, "G2 robust z-score": 0.181, "G2 cells, % of GMNN control": 4.24, "raw share of cells in G2 (%)": 6.45}
{"target": "LRRC28", "reagent no.": 1, "G2 robust z-score": 0.535, "G2 cells, % of GMNN control": 6.73, "raw share of cells in G2 (%)": 6.79}
{"target": "LRRC28", "reagent no.": 2, "G2 robust z-score": 1.39, "G2 cells, % of GMNN control": 12.7, "raw share of cells in G2 (%)": 7.12}

The results go on.
target	reagent no.	G2 robust z-score	G2 cells, % of GMNN control	raw share of cells in G2 (%)
MTA2	1	-0.346	0.535	4.9
MTA2	2	-0.561	-0.976	4.92
MTA2	3	-0.673	-1.77	3.74
NOL3	1	-0.596	-1.22	2.92
NOL3	2	-0.292	0.915	5.54
NOL3	3	2.91	23.4	13.2
LSM14B	1	-1.06	-4.52	2.31
LSM14B	2	-0.401	0.146	2.96
LSM14B	3	-0.3	0.855	3.37
GOLGA6L2	1	-0.558	-0.96	2.97
GOLGA6L2	2	-0.587	-1.16	3.22
GOLGA6L2	3	0.582	7.06	5.78
SNRPD2P1	1	0.261	4.81	6.02
SNRPD2P1	2	4.86	37.2	14.4
SNRPD2P1	3	-0.932	-3.59	0.77
DLG4	1	6.58 (active)	49.3	22.5
DLG4	2	-0.017	2.85	6.03
DLG4	3	-0.332	0.634	4.31
CREB3L4	1	0.58	7.05	9.32
CREB3L4	2	0.576	7.02	7.27
CREB3L4	3	1.82	15.8	11.3
TMPRSS7	1	-0.903	-3.39	4.17
TMPRSS7	2	-0.0405	2.68	5.36
TMPRSS7	3	1.19	11.3	8.48
TTC21B	1	-0.926	-3.54	2.97
TTC21B	2	1.67	14.7	10.7
TTC21B	3	-1	-4.1	1.26
USP51	1	-0.531	-0.769	5.27
USP51	2	8.39 (active)	62	24.9
USP51	3	-0.656	-1.65	3.65
PRPF4	1	0.219	4.51	7.13
PRPF4	2	0.241	4.66	5.74
PRPF4	3	-0.122	2.11	4.09
COL24A1	1	2.75	22.3	11.7
COL24A1	2	-0.307	0.805	3.41
COL24A1	3	-0.176	1.73	3.75
SEC16B	1	-0.941	-3.65	2.53
SEC16B	2	2.26	18.9	8.91
SEC16B	3	0.31	5.15	4.56
